Each structure is given as a SMILES string. Counter-ions that a name gives are not always drawn. The list shows a part of the results. Repeats in this data set agree poorly, so a single value says little.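 A first-round screen of about ten thousand compounds sought those raising reporter output, using human embryonic kidney cells briefly transfected with a plasmid carrying a Renilla luciferase gene driven by the HSV-TK promoter.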

This assay relates to HEK 293FT. Kind of assay: log relative Renilla luciferase luminescence (reporter expression vs reference, reference not stated) (log (base not stated)); higher = higher recombinant reporter expression. As to conditions: 10 µM; time after transfection 48 h.
`CCN(CC)CCOC(=O)C(C)(c1ccccc1)c1ccccc1` [Aprofene]: the log was 0.0239.

With `O=C1Nc2ccc(Cl)cc2C(c2ccccc2)=NC1O` (stereo not given) [Oxazepam], the log was 0.135.

Turning to `O=C1C[N+]([O-])=C(c2ccccc2)c2cc(Cl)ccc2N1` [Demoxepam], the log stood at 0.0966.

Take `C[C@H]1CCC[C@H](O)CCCCCc2cc(O)cc(O)c2C(=O)O1` [Zeranol]: the log was -0.183.

On to `c1coc(-c2nc3ccccc3[nH]2)c1` [Fuberidazole], for which the log is 0.0597.

For `CCCN(CCC)c1c([N+](=O)[O-])cc(C(F)(F)F)cc1[N+](=O)[O-]` [Trifluralin], the log was -0.306.

Take `CC1=C(C(=O)Nc2ccccc2)SCCO1` [Carboxin]: the log turned out to be 0.0211.

In the case of `OC(c1ccccc1)(c1ccccc1)C1CCNCC1` [Azacyclonol], the log is -0.00227.

Take `CC(N)Cc1c[nH]c2ccccc12` (stereo not drawn) [Alpha-methyltryptamine]: the log came to 0.0205.

`COc1ccc2c(c1)[C@]13CCCC[C@@H]1[C@H](C2)N(C)CC3` [Dextromethorphan Hydrobromide]: the log was -0.88.

On to `CN(C)C(=O)Oc1cccc([N+](C)(C)C)c1` [Neostigmine Mesilate], for which the log was found to be 0.223.

Consider `CC1(C)S[C@@H]2[C@H](N)C(=O)N2[C@H]1C(=O)O` [Aminopenicillanic acid], for which the log came out at 0.0695.

As to `O=C1CN=C(c2ccccc2)c2cc(Cl)ccc2N1` [Nordazepam], the log was found to be 0.0735.

In the case of `CN1CCc2cc3c(cc2[C@@H]1[C@@H]1OC(=O)c2c1ccc1c2OCO1)OCO3` [Adlumidine], the log is -0.236.

With `O=C1CN=C(c2ccccc2Cl)c2cc(Br)ccc2N1` [Fenazepam], the log came out at 0.104.

Turning to `C/C=C/c1cc(OC)c(OC)cc1OC` [Alpha-asarone], the log worked out at 0.0607.

On to `OC(c1cccs1)(c1cccs1)C1CN2CCC1CC2` (stereo not given) [Quiditene], for which the log is -0.195.

As to `C[C@]12CC[C@H](O)C[C@H]1CC[C@@H]1[C@@H]2CC[C@]2(C)[C@@H](C3=CC(=O)OC3)CC[C@]12O` [Digitoxigenin], the log was -1.33.

With `CCC(N)Cc1c[nH]c2ccccc12` (stereo not given) [Etryptamine], the log is -0.00227.

As for `CC(C)OC(=O)C(O)(c1ccc(Br)cc1)c1ccc(Br)cc1` [Bromopropylate], the log was -0.0682.

Regarding `COc1ccc(CN2CCNCC2)c(OC)c1OC` [Trimetazidine Dihydrochloride], the log is -0.301.

Turning to `CC1CC(C)C(=O)C(C(O)CC2CC(=O)NC(=O)C2)C1` (stereo not given) [Isocycloheximide], the log was -1.34.

`CCOP(=O)(OCC)Oc1ccc([N+](=O)[O-])cc1` [Paraoxon]: the log is 0.0256.

For `Cc1nnc2n1-c1ccc(Cl)cc1C(c1ccccc1)=NC2` [Alprazolam], the log was -0.0746.

Regarding `Cc1ccc(-c2nc3ccc(C)cn3c2CC(=O)N(C)C)cc1` [Zolpidem Tartrate], the log was -1.11.

These data come from the supplement of paper PMC7024190.
